# Test results published in PubChem BioAssay AID2417 (National Center for Advancing Translational Sciences (NCATS), 2010).
# Hit rate of the full screen: of about 140,000 compounds, about 4,300 (3.1%) were called active. Inconclusive means that the source gave no clear call. Such entries were picked first, then a sample of the others.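 Rule for the calls: active = readout at or below -70, meaning at least 70% loss of cells showing the perinucleolar compartment, a nuclear body marking cancer cells; inconclusive = readout between -30 and a set limit; inactive = the rest.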
# Experiment: High Content Assay for Compounds that inhibit the Assembly of the Perinucleolar Compartment;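 note: plate controls were DMSO wells for no effect and camptothecin positive control wells for full effect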
# Settings: PC3M PTB-GFP, PNC prevalence imaging, 16 h; at 10 µM; active compounds read low
# In short: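 PC3M cells stably expressing PTB-GFP, 750–1000 cells/well, treated 16 h at 37 °C with compound (23 nl of library stock), in duplicate. After paraformaldehyde fixation and Hoechst stain, imaged at 20x; PNC prevalence scored by image analysis.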
row,SMILES,"activity change (PNC), negative = inhibition"
1,Cc1ccc(C2CCN(C(=O)Nc3ccccc3)C2)cc1 (configuration not stated),inconclusive: -58.4%
2,Cc1ccc(OCC(=O)NCc2ccccn2)c(Br)c1,inconclusive: -34.5%
3,O=C(OCc1nc2ccccc2s1)c1cccc(S(=O)(=O)N2CCOCC2)c1,active: -100%
4,CCc1ccccc1NC(=O)CN(C)C(=O)CSc1nn(-c2ccc(F)cc2)c(=S)s1,inconclusive: -31.3%
5,CC(=O)N1N=C(c2ccc(C)o2)CC1c1ccc(F)cc1 (configuration not stated),inconclusive: -51.9%
6,Cc1ccc(/C=C2\Oc3cc(OC(=O)N4CCOCC4)ccc3C2=O)cc1,inconclusive: -63.2%
7,CCOc1ccc2c(c1)c(N=NC(=N)N)c(O)n2C,inconclusive: -31.4%
8,COc1ccc(C(=O)Nc2nnc(-c3ccco3)s2)cc1,inactive: 26%
9,CCCn1c(Sc2nnnn2-c2ccccc2)n[nH]c1=O,inconclusive: -45.2%
10,COc1ccc(OC)c(C2Nc3nc4ccccc4n3C(C)=C2C(=O)Nc2ccc(C)cc2C)c1 (configuration not stated),inconclusive: -62.7%
11,CCCc1[nH]nc2c1C(c1c(C)nn(-c3ccccc3)c1Cl)C(C#N)=C(N)O2 (configuration not stated),inconclusive: -68.3%
12,Cc1ccc(S(=O)(=O)c2ccc(Oc3cccc(C)c3)cc2)cc1,inactive: 78.4%
13,O=C(CCN1CCN(CC(=O)Nc2ccccc2F)CC1)Nc1ccccc1F,inconclusive: -45.5%
14,C=CCn1c(SCC(=O)N2CC(=O)Nc3ccccc32)nc2scc(-c3ccccc3)c2c1=O,inconclusive: -57.9%
15,Fc1ccc(Sc2cc(Cl)c(-c3ccccc3)nn2)cc1,inactive: 113%
16,Oc1ccccc1/C=N/Nc1ccnc(SCc2ccccc2)n1,inconclusive: -34.3%
17,O=C(COC(=O)c1ccc(NS(=O)(=O)c2ccc3c(c2)OCCO3)cc1)NCC1CCCO1 (configuration not stated),active: -92.4%
18,COC(=O)c1ccc(NC(=O)N2CCC(O)(c3cccnc3)CC2)cc1,inactive: -5.5%
19,N#C/C(=C\c1cn(CCOc2ccccc2)c2ccccc12)C(=O)NCC1CCCO1 (configuration not stated),inconclusive: -38.4%

row,SMILES,"activity change (PNC), negative = inhibition"
1,COc1cccc2cc(C(=O)N3CCN(C45CC6CC(CC(C6)C4)C5)CC3)c(=O)oc12,inconclusive: -60.7%
2,CCSc1nc2ccccc2n1C(=O)/C=C/c1ccc(OC)c(OC)c1,inactive: 27.2%
3,CC1(C)Nc2ccccc2C(=O)N1NS(=O)(=O)c1ccccc1,inconclusive: -49.5%
4,Clc1ccc(-c2nnc(-c3ccc(Br)o3)o2)c(Cl)c1,inconclusive: -33.4%
5,NC(N)=NS(=O)(=O)c1ccc(N)cc1,inconclusive: -30.2%
6,COC(=O)Nc1nnc(CC(=O)Nc2ccccc2C)s1,inconclusive: -48.4%
7,N/C(Cc1ccc([N+](=O)[O-])cc1)=N\OC(=O)c1ccc([N+](=O)[O-])cc1,inconclusive: -47.1%
8,CCN(CC)CCC(=O)Nc1ccc2c(c1)N(C(=O)CN(CC)CC)c1ccccc1CC2,inactive: 32.5%
9,COc1ccccc1N1CCN(c2ccc([N+](=O)[O-])cc2Cl)CC1,inconclusive: -61.6%
10,CC(C)Sc1nc(O)c(Cc2ccccc2)c(=O)[nH]1,inconclusive: -68.8%
11,O=C(CCN1C(=O)c2ccccc2C1=O)NC(=S)Nc1ccccc1Cl,inactive: -17.1%
12,COC(=O)CCN(C1CCCCC1)S(=O)(=O)c1ccc(S(=O)(=O)N2CCCCC2)cc1,inactive: -27.7%
13,CCOC(=O)N1CCN(C(=O)Nc2ccc3nc(C)sc3c2)CC1,inactive: -26%
14,Cc1ccc(OCCCC(=O)Nc2nccs2)cc1,inconclusive: -49.8%
15,COC(=O)c1ccc(NC(=S)NC2CCCCC2C)cc1 (configuration not stated),inconclusive: -47.3%
16,CCOC(=O)c1[nH]c(COC(=O)C2CC(=O)N(Cc3ccccc3)C2)c(C(=O)OCC)c1C (configuration not stated),inactive: 41.3%
17,CC1CCCCC12NC(=O)N(CC(=O)NC(=O)NCc1ccco1)C2=O (configuration not stated),inconclusive: -47.3%
18,COc1ccccc1CN1C(=S)SC(C)(C)C1NO (configuration not stated),inconclusive: -58.7%
19,CCOc1ccc(C(=O)CCNC(Cc2cnc[nH]2)C(=O)O)cc1 (configuration not stated),inactive: 21.4%

# Taken from above.
# COc1ccc(C(=O)Nc2nnc(-c3ccco3)s2)cc1 | activity change (PNC), negative = inhibition: inactive: 26%
# O=C(CCN1C(=O)c2ccccc2C1=O)NC(=S)Nc1ccccc1Cl | activity change (PNC), negative = inhibition: inactive: -17.1%

# Further entries follow:

row,SMILES,"activity change (PNC), negative = inhibition"
1,CCCOc1cccc(C2C(C(=O)c3ccco3)=C(O)C(=O)N2CCN(CC)CC)c1 (configuration not stated),inconclusive: -36.5%
2,CCN1C(=O)CSc2ccc(C(=O)NCc3ccc(OC)cc3)cc21,inactive: 45.7%
3,COc1ccc(OC)c(NC(=O)Nc2cc(NC(=O)Nc3cc(OC)ccc3OC)c(C)nc2C)c1,inconclusive: -36.4%
4,Cc1ccc(S(=O)(=O)N2CCCCC2)cc1NC(=O)COC(=O)c1ccc2c(c1)OCO2,inconclusive: -66.1%
5,COc1ccc(S(=O)(=O)NCC2CCC(C(=O)N3CCC4(CC3)OCCO4)CC2)cc1 (configuration not stated),inactive: 19.8%
6,Cc1cccc(Nc2ncnc3nc[nH]c23)c1,inactive: 35.8%
7,Cc1ccc(CNS(=O)(=O)NCc2ccccc2)cc1,inactive: 18.1%
8,O=C(c1cccs1)N1CCN(c2ncccn2)CC1,inactive: 43.9%
9,CCc1nnc(NC(=O)C2CCN(c3cnccn3)CC2)s1,inconclusive: -67.9%
10,C=CCC1(O)C(=O)Nc2ccccc21 (configuration not stated),inconclusive: -58.2%
11,N=C1/C(=C\c2ccc(-c3cccc(Cl)c3)o2)C(=O)N=C2SC=C(c3ccccc3)N12,inconclusive: -76.8%
12,COC(=O)c1cccc(COC(=O)CNC(=O)c2ccco2)c1,inconclusive: -39.6%
13,CCc1nc(-c2ccccc2)cc(=O)[nH]1,inconclusive: -55.5%
14,O=C(NC(NNc1ccc([N+](=O)[O-])cc1)(C(F)(F)F)C(F)(F)F)c1ccc(F)cc1,inactive: -20.1%
15,COCCCNC(=S)NC(=O)c1ccc(C)cc1,inactive: -21%
16,COc1ccccc1-c1noc(CCC(=O)Nc2cc(C(F)(F)F)ccc2Cl)n1,inconclusive: -37.3%
17,COc1cc(C(=O)NCC(C)C)cc(OC)c1OC,inactive: 8.87%
18,CC(C)OCC(O)CN1CCN(CC(O)COc2ccc3c(c2)OCO3)CC1 (configuration not stated),inconclusive: -43.5%
19,CCCOc1ccc(N2C(=O)CC(N(Cc3ccc(S(N)(=O)=O)cc3)C(=O)CC)C2=O)cc1 (configuration not stated),inconclusive: -39.6%
